Experimental data: publication PMC9758055
These are yes or no findings as the source states them, for the method shown. Some binding calls cover weakened binding; strength is not graded here.

By UniProt entry, the sequences of proteins in these tests, tags left out.
UniProt P20226: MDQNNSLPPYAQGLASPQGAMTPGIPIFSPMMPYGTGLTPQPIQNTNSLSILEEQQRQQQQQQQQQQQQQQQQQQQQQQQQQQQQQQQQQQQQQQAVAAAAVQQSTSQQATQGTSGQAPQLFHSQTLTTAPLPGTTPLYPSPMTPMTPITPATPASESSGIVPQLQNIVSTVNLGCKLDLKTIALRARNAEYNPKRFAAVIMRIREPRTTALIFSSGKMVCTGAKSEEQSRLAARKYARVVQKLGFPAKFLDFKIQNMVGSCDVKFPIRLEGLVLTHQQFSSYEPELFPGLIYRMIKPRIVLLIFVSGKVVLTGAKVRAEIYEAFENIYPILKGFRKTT

Target: TATA box-binding protein TBP (human) (UniProt P20226)
Assay: co-sedimentation; SNAPc (FL or core) pre-incubated with snRNA promoter DNA, then TFIIA–TFIIB, TBP, pre-formed Pol II–TFIIF and TFIIE added; 10–30% sucrose-gradient ultracentrifugation, 175,000g, 16 h, 4 °C; fractions analysed by SDS–PAGE; both purified

- binding: binds
Substance: SNAPc-FL (snRNA-activating protein complex with all full-length subunits) (from UniProt Q16533 1-368; Q13487 1-334; Q92966 1-411; Q5SXM2 1-1469; O75971 1-98)
